The list shows a part of the results.

Sequences of proteins named here, by UniProt entry; tags and fusion partners are left off.
UniProt Q0JBA9, entry or part of it: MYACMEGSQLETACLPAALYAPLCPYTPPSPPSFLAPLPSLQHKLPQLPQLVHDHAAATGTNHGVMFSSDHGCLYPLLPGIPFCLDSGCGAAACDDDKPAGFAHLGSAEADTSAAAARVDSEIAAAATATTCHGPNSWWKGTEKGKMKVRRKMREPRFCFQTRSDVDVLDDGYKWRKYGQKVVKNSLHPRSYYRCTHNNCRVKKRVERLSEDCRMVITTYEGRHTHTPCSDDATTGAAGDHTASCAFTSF

In the assay the target is OsWRKY34 (Oryza sativa, UniProt Q0JBA9 1-250). Description: protein-binding microarray (RPBM); PBS, 2% BSA, 51.3 ng/ul salmon testes DNA, 50 uM zinc acetate, 200 nM TF, 25 C, 1 h; high values mean tight binding. To be noted: protein: recombinant; tags: N-terminal polyhistidine and DsRed monomer fusion (pET32a); label: CyDye5-dUTP incorporated in the synthesized complementary strand; 3' TTTTT single-stranded linker to array surface; dsDNA, one strand shown. A digest of the protocol:
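Ni–NTA purification followed expression in E. coli BL21-CodonPlus of transcription factors fused N-terminally to a polyhistidine tag and DsRed. At 200 nM in PBS with 2% BSA, salmon testes DNA and 50 µM zinc acetate, the protein was incubated for 1 h at 25 °C with a custom Agilent array that had been primer-extended with Cy5-dUTP and blocked with 2% BSA. After washing, the array was read on an Axon 4000B scanner. The binding signal is per-feature fluorescence intensity in arbitrary units.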
In the case of “CTCGCCATCTTCGCCGTCCTTGCTTTCTTATATAAATTTTCGGAGTCACCTAGTGCAG”, the binding signal was 12200 fluorescence intensity (a.u.). As for “TACTTGGCTATACTATTAAACTTGCTCTCGCACCATCTTTCGGAGTCACCTAGTGCAG”, the figure is 9680 fluorescence intensity (a.u.). The figure for “TACCAGATGAACTCTTTCCAATAATGTGATTGCCGGTGTTCGGAGTCACCTAGTGCAG” is 11100 fluorescence intensity (a.u.); for “GTCGTCGCCATCTTCGGTCCACATCTCCACCGACAAGTCCCGGAGTCACCTAGTGCAG” it is 11600 fluorescence intensity (a.u.). As for “GCGGAGCGGAGCGTGTCGGGTGGGAGGTGGCAGCTGGCGGCGGAGTCACCTAGTGCAG”, the figure is 10200 fluorescence intensity (a.u.); as for “CGGTCAAAACTATTCTCGGCTTACGACATCTCGCAGTCTCCGGAGTCACCTAGTGCAG”, 9870 fluorescence intensity (a.u.); as for “CCGCCGCCATCAAGTCCGCCATCATGACCACCGGTGAGAACGGAGTCACCTAGTGCAG”, 8490 fluorescence intensity (a.u.). On to “CCATTCCATCTCCGGTCTGAGCCGCCGCCGCCGCCTTCTTCGGAGTCACCTAGTGCAG”, for which the binding signal is 8690 fluorescence intensity (a.u.). As for “GCCTCACCGCCTCAATCCTCATCCGTGTCTAACTCGAACGCGGAGTCACCTAGTGCAG”, the figure is 9850 fluorescence intensity (a.u.); as for “CTACCCGGCCGACCCCGCCGCCGCCGCCCGAGCCCTCGCCCGGAGTCACCTAGTGCAG”, 8980 fluorescence intensity (a.u.). With “CTGCTTCTGAATTTCTCCATTCTTTCCAGCAAGCTTACCACGGAGTCACCTAGTGCAG”, the binding signal is 10600 fluorescence intensity (a.u.). The figure for “TGTATTGTTTGCTGTTAATTAGTTAGTCTTATTCTCACCACGGAGTCACCTAGTGCAG” is 9780 fluorescence intensity (a.u.); for “TTGACGCTGATCAAACCAAATTAATTACTCTCTCCGTTTCCGGAGTCACCTAGTGCAG” it is 9890 fluorescence intensity (a.u.). The figure for “AGGGGATCGATTTGGGATAGGGTTGTTAGATTTGGGGCTACGGAGTCACCTAGTGCAG” is 14000 fluorescence intensity (a.u.); for “TTCAATTTTGGCCCATGAGCGTACCTGCAGCCCATTCATACGGAGTCACCTAGTGCAG” it is 8360 fluorescence intensity (a.u.); for “GCACCGTTTAGTTCCTCAAAATTTTCTTTTACCAAAAACACGGAGTCACCTAGTGCAG” it is 9160 fluorescence intensity (a.u.). For the sequence “TACCTCTCTTGCTACTATCTCTACTGCAGCTACTAGGGCACGGAGTCACCTAGTGCAG”, the binding signal was 9570 fluorescence intensity (a.u.). The figure for “CCGGATTATTCTTCCGTTGCCTTGTATCTGTCATTGCTGGCGGAGTCACCTAGTGCAG” is 9770 fluorescence intensity (a.u.).

Take “TTCGACATCGATTGATCACTCACATACTATATTTATACATCGGAGTCACCTAGTGCAG”: the binding signal is 10000 fluorescence intensity (a.u.). As for “CGCTGTCCACTGTCCACACCCGCACACGCCGCTTCCCACCCGGAGTCACCTAGTGCAG”, the figure is 8410 fluorescence intensity (a.u.); as for “AGTGGTTTGTGCTGCACTGCTTCATGTAACGTGAAATACTCGGAGTCACCTAGTGCAG”, 8250 fluorescence intensity (a.u.). The figure for “GGGCTTCCTCACTTGTGCCATGTTTGTTGCTCACTCCTTTCGGAGTCACCTAGTGCAG” is 8770 fluorescence intensity (a.u.). For “GATCTCTTCATTTCCTTGCTGCCATCCTACTGAAGAAGATCGGAGTCACCTAGTGCAG”, the binding signal is 8980 fluorescence intensity (a.u.).

Consider “GTTCCCATCTTTCTCTCTCTCTCTTTTTTTCTGGAAGAAGCGGAGTCACCTAGTGCAG”, for which the binding signal was 8910 fluorescence intensity (a.u.). As for “AGGAAAAACTATTCCCGTCCTCTGCTTCTTCATCCTCGTGCGGAGTCACCTAGTGCAG”, the figure is 8300 fluorescence intensity (a.u.); as for “CATTCTGCTATATCCTGAGATCTTCCTAGCTATCATCTGCCGGAGTCACCTAGTGCAG”, 11000 fluorescence intensity (a.u.); as for “CGCCGTTGACTTTTTTAAAAATGTTTGACCGTTCCTCTTACGGAGTCACCTAGTGCAG”, 20900 fluorescence intensity (a.u.).

Turning to “CTTTTCTTTTTTTTCTTTTTTCCGATTAATGTGGGAATTTCGGAGTCACCTAGTGCAG”, the binding signal is 11200 fluorescence intensity (a.u.). As for “CCTCGGCTCCCATCCACTACCGTTTGCTACTCCGGCGCCGCGGAGTCACCTAGTGCAG”, the figure is 10600 fluorescence intensity (a.u.); as for “GGTCGCCGGATCGCGGGAGGGAGGGAGGGAGGGAGGGAGGCGGAGTCACCTAGTGCAG”, 14100 fluorescence intensity (a.u.).

“TCAAAAGGTCCAAGCCCCGAATGTCAACTAATTCATCACTCGGAGTCACCTAGTGCAG”: the binding signal was 8890 fluorescence intensity (a.u.).

“AATCTCATCCTAATTCTGTTTTAATTTCTGGTGGGAATTTCGGAGTCACCTAGTGCAG”: the binding signal is 8070 fluorescence intensity (a.u.). The figure for “TCCTTGCACTGTTGCTGCTGCTGATGCTTCACGTCGTCCGCGGAGTCACCTAGTGCAG” is 10300 fluorescence intensity (a.u.). The figure for “GTGGTGGTAGTGGTAGTGGAGTGAGTGTAGGGGCCTCATGCGGAGTCACCTAGTGCAG” is 8700 fluorescence intensity (a.u.); for “AGCCTTATCTCTTCATCGGTTCATCCGGTGCCTGTTGTCTCGGAGTCACCTAGTGCAG” it is 8990 fluorescence intensity (a.u.). As for “CGGTCTTCGGTCTTTCGGTCATTTCGGTCTTTGCAATCTCCGGAGTCACCTAGTGCAG”, the figure is 12700 fluorescence intensity (a.u.). As for “CAATTAGTTAAATATGTCAGATCGTTTACTTTCTTTTTGACGGAGTCACCTAGTGCAG”, the binding signal was 8260 fluorescence intensity (a.u.). The figure for “TCTTTAGCCGGCGTTGCTTTTTTTGGGATTTCTTGGGAGTCGGAGTCACCTAGTGCAG” is 8290 fluorescence intensity (a.u.); for “TTTAAAAGTCAACGGCGTCAGAGGGAGTATATATTTTAGCCGGAGTCACCTAGTGCAG” it is 9840 fluorescence intensity (a.u.). Consider “AACTCATATGACAGTGATCTTCCATTCCACTTTCTATCTACGGAGTCACCTAGTGCAG”, for which the binding signal is 11100 fluorescence intensity (a.u.).

With “CTGTACCCCGCTACTCCTCTTTCTCCTCTTTTATCTTTTCCGGAGTCACCTAGTGCAG”, the binding signal was 8630 fluorescence intensity (a.u.). As for “CGCGCTCTGCATGTCGGTCCGTCAACTTGATCGCGATTCTCGGAGTCACCTAGTGCAG”, the binding signal was 8590 fluorescence intensity (a.u.).

These data come from article PMC7819943, “Rice protein-binding microarrays: a tool to detect cis-acting elements near promoter regions in rice”.
